Tested on: Human platelets
Assay: Fatty acid content of platelet lipids after CLA treatment (gas liquid chromatography)
Format: cell-based
Details: platelets treated 2 hours, 25 μM; for CLA content (% total lipids) 9Z, 11Z-: content of the 9Z, 11Z isomer; for CLA content (% total lipids) 10E, 12Z-: content of the 10E, 12Z isomer

## CCCCCCC=CC=CCCCCCCCC(=O)O [9Z, 11Z-CLA, 9,11-octadecadienoic acid]
  CLA content (% total lipids) 9Z, 11Z-: 0.23 % total lipids
  CLA content (% total lipids) 10E, 12Z-: 0.03 % total lipids

## CCCCCC=CC=CCCCCCCCCC(=O)O [10E, 12Z-CLA, 10,12-octadecadienoic acid]
  CLA content (% total lipids) 9Z, 11Z-: 0.03 % total lipids
  CLA content (% total lipids) 10E, 12Z-: 0.66 % total lipids

Source: patent publication US20040229950A1, “Method and composition with conjugated linoleic acid esters” (priority 2002, published 2004)
